Laboratory results published in the supplement of paper PMC11006884.
The targets with a hit were mostly taken out for another list; the other results follow. This is a noisy data set. This is a selection; strong and weak results do not stand in their true shares.

Amino acid sequences for entries named in this document (tags omitted). A change or cut given only in a name is not applied to a line headed by its entry.
UniProt P13995: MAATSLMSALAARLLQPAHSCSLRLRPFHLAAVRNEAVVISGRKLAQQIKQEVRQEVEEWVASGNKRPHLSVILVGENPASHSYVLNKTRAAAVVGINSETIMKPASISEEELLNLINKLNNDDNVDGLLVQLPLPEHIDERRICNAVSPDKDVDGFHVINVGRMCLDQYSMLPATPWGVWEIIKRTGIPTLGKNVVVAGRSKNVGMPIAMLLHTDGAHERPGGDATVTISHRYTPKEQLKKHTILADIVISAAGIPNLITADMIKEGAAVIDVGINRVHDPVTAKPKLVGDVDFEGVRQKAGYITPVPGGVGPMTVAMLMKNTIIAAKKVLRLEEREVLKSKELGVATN
UniProt P08047, whole entry, looked up: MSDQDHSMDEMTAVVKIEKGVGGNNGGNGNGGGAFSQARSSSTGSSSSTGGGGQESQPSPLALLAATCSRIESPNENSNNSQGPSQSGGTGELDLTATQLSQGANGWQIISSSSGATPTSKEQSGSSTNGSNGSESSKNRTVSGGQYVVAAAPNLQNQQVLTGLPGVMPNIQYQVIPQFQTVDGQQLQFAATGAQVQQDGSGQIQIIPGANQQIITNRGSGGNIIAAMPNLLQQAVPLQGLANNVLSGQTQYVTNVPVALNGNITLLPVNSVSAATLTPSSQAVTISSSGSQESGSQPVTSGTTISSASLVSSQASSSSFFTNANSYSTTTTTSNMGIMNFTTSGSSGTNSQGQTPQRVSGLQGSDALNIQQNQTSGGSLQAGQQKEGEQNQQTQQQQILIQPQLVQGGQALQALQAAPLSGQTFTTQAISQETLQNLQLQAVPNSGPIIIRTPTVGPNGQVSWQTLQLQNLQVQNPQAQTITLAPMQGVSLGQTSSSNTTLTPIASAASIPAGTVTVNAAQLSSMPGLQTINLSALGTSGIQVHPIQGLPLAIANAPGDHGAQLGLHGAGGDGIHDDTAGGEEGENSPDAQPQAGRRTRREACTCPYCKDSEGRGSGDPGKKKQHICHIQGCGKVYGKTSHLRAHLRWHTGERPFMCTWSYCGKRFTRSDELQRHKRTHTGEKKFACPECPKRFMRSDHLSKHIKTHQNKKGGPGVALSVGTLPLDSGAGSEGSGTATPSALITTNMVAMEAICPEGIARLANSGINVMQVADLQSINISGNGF
UniProt P13797: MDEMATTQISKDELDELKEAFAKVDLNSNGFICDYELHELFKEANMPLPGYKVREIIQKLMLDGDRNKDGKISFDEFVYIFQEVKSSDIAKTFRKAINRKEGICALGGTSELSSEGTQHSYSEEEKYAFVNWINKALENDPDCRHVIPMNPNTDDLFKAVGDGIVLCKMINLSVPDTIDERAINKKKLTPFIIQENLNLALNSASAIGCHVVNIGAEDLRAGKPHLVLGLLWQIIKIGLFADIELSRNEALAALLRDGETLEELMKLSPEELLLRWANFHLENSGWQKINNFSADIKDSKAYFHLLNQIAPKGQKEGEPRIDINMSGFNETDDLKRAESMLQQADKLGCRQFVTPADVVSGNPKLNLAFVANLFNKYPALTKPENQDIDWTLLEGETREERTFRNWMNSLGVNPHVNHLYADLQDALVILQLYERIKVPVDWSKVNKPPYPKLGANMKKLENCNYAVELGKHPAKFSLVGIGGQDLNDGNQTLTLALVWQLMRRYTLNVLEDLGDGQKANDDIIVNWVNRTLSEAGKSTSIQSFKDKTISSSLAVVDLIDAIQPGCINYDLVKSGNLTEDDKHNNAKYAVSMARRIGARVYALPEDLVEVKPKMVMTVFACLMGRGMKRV
UniProt P11274: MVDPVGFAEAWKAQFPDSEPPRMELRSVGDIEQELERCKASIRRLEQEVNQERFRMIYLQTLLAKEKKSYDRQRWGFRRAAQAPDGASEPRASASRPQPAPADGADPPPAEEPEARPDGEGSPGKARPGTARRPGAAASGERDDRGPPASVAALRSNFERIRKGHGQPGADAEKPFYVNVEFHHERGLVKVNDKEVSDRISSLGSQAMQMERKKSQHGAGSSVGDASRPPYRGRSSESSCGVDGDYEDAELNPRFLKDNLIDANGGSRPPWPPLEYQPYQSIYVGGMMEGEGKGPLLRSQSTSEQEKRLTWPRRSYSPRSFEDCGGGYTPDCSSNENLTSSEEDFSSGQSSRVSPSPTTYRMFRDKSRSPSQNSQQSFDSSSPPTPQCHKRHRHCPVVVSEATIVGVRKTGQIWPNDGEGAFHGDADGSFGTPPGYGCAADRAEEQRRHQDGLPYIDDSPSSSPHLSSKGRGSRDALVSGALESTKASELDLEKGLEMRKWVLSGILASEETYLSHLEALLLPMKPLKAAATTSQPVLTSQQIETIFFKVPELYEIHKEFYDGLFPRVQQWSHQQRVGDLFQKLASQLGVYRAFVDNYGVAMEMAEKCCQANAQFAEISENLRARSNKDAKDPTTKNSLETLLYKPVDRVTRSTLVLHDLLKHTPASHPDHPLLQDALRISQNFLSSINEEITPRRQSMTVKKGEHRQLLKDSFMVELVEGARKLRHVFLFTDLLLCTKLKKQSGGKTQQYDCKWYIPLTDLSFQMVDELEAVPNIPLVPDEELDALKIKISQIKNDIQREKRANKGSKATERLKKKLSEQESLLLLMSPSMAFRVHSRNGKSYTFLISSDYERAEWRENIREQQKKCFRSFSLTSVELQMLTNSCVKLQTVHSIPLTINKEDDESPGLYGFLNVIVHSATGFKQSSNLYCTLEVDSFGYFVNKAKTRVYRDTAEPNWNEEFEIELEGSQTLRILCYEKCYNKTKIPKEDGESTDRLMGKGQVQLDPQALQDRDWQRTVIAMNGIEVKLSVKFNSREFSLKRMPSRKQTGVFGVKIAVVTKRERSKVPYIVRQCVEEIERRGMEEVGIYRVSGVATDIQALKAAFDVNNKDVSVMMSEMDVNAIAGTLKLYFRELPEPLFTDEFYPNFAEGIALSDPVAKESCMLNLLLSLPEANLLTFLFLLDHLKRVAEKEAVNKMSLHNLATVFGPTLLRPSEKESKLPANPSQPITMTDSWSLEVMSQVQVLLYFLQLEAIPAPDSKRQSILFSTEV
UniProt P08238, whole entry, looked up: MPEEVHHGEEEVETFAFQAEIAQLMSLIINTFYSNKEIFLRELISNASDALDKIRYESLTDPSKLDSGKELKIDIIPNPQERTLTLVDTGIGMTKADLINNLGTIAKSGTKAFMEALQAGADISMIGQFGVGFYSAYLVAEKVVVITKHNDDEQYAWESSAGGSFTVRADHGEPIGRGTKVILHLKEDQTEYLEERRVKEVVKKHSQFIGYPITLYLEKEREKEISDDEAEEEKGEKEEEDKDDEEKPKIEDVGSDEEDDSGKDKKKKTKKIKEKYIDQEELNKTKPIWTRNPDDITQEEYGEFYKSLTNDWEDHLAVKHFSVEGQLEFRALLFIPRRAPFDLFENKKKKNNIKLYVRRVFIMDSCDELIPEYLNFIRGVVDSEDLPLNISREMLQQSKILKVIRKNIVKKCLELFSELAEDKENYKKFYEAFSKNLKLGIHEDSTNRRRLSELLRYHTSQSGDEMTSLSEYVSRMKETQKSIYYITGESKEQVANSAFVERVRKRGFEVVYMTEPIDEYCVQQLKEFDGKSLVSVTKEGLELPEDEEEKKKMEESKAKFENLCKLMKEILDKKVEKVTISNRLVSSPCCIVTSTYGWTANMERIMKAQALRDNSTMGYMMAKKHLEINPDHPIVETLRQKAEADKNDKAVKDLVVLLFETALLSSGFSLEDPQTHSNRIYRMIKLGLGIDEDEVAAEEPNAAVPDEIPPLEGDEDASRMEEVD
UniProt P16152: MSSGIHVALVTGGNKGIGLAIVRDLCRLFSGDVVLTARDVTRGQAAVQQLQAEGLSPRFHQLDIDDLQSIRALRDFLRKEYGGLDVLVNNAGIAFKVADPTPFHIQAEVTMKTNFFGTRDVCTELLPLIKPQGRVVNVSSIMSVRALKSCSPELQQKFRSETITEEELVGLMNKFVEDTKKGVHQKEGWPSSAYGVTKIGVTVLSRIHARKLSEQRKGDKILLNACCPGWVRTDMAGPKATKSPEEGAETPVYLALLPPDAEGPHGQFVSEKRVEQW
UniProt P0DMV8, whole entry, looked up: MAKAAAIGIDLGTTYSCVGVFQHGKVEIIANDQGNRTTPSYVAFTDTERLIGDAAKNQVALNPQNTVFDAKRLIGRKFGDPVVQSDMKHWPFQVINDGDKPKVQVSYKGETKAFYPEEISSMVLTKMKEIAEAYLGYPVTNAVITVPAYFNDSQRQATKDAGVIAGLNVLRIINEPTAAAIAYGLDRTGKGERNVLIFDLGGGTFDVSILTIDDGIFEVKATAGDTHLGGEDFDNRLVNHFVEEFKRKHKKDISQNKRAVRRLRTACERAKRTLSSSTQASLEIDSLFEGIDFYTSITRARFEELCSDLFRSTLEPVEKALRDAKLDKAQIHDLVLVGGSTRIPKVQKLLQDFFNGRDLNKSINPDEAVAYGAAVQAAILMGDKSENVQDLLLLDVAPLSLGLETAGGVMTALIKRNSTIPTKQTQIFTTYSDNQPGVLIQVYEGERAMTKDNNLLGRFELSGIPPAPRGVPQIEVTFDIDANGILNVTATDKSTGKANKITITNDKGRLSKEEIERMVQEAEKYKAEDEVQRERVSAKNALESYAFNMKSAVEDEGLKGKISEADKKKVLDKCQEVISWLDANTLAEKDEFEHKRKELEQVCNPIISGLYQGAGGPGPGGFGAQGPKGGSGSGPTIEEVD
UniProt P07954: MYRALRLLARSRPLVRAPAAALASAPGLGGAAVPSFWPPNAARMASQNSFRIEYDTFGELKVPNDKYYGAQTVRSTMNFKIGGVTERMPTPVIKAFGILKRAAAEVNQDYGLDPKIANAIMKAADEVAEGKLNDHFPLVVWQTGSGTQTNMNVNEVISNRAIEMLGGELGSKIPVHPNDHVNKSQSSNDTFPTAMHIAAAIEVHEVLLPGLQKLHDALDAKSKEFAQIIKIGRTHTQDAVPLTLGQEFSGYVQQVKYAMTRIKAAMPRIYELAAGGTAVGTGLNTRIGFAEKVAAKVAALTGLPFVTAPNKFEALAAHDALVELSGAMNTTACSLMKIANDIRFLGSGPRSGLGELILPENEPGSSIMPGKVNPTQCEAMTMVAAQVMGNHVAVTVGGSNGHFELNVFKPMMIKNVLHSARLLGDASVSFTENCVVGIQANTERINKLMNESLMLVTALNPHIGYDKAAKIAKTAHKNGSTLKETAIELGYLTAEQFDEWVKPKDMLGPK
UniProt P09874, whole entry, looked up: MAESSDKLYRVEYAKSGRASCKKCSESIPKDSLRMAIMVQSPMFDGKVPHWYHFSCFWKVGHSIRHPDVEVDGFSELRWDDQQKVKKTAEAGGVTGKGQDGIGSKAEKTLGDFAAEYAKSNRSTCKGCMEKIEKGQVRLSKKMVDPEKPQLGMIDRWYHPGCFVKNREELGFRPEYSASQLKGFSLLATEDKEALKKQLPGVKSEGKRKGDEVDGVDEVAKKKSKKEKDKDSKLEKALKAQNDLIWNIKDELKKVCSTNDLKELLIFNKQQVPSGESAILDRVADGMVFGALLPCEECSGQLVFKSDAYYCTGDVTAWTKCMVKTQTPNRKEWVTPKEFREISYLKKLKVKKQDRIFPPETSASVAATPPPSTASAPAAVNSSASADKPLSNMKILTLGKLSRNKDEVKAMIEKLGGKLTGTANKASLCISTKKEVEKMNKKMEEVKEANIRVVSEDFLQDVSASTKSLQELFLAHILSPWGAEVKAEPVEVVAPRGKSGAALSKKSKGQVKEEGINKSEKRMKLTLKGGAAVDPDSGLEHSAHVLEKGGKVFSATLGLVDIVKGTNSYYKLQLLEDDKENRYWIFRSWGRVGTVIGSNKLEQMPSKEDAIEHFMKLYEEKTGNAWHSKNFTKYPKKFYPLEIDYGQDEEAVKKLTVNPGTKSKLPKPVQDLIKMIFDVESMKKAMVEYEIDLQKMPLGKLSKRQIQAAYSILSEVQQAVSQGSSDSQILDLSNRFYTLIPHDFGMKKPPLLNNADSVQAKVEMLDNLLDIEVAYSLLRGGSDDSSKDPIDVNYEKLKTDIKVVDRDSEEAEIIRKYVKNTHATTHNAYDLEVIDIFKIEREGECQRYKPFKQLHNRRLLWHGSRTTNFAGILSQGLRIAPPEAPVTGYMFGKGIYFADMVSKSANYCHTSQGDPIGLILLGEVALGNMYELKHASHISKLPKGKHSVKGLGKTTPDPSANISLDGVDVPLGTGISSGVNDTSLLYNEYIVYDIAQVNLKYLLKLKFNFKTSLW
UniProt P12004, whole entry, looked up: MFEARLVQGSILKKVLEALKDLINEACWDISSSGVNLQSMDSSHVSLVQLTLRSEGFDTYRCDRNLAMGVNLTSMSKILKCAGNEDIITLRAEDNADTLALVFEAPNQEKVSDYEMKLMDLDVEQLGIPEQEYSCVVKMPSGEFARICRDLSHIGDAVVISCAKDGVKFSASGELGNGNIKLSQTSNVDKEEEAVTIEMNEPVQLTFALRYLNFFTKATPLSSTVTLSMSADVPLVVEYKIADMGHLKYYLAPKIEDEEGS
UniProt P10599: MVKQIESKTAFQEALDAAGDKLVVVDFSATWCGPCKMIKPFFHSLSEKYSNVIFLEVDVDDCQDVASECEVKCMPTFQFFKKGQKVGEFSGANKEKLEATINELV

compound: COC(=O)/C=C/c1ccccc1 [methyl cinnamate]; assay: log2 ratio of iodoacetamide-alkyne labeling of the cysteine site, DMSO over compound (competition); higher = stronger covalent engagement of the cysteine by the compound, active = 1 or more; conditions: 500 µM; treatment time 1 h; system: HEK293T cell lysate
Procedure, shortened: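 For each cysteine, the log2 competition ratio is mean control-channel reporter intensity over mean compound-channel reporter intensity. HEK293T lysate (2 mg/mL) was exposed to vehicle or electrophile (500 µM, 1 h, ambient temperature), labelled with iodoacetamide alkyne (1 h), clicked to sCIP-TMT reagents, digested overnight with trypsin at 37 °C, streptavidin-enriched and analysed by Orbitrap Eclipse LC-MS/MS with FAIMS and FragPipe. Cysteines quantified in only one of three replicates, each with duplicate channels, were excluded.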

log2 ratio of iodoacetamide-alkyne labeling, inactive:
MTHFD2 C145 (UniProt P13995) 0.0129
SP1 C604 (UniProt P08047) 0.353
PLS3 C621 (UniProt P13797) 0.0225
BCR C395 (UniProt P11274) 0.326
RPSA C163 (UniProt P08865) -0.506
EEF2 C591 (UniProt P13639) 0.141
EEF2 C290 (UniProt P13639) -0.129
IMPDH2 C173 (UniProt P12268) 0.0573
UniProt P14618_C31 -0.176
HSP90AB1 C521 (UniProt P08238) 0.218
CBR1 C122 (UniProt P16152) 0.0472
UniProt P0DMV8_C603 0.0376
FH C434 (UniProt P07954) 0.194
PARP1 C429 (UniProt P09874) 0.237
PCNA C162 (UniProt P12004) 0.16
TXN C73 (UniProt P10599) 0.237

Random excerpt: 2 records from the list, in no set order.
log2 ratio of iodoacetamide-alkyne labeling, inactive:
CBR1 C122 (UniProt P16152) 0.0472
SP1 C604 (UniProt P08047) 0.353
